# Assay results from PubChem BioAssay AID1671190 (National Center for Advancing Translational Sciences (NCATS), 2021).
# By UniProt entry, the sequences of proteins in these tests, tags left out. Where a name states a change or a piece, a line headed by the entry shows the natural chain unless it says otherwise.
# UniProt P18054: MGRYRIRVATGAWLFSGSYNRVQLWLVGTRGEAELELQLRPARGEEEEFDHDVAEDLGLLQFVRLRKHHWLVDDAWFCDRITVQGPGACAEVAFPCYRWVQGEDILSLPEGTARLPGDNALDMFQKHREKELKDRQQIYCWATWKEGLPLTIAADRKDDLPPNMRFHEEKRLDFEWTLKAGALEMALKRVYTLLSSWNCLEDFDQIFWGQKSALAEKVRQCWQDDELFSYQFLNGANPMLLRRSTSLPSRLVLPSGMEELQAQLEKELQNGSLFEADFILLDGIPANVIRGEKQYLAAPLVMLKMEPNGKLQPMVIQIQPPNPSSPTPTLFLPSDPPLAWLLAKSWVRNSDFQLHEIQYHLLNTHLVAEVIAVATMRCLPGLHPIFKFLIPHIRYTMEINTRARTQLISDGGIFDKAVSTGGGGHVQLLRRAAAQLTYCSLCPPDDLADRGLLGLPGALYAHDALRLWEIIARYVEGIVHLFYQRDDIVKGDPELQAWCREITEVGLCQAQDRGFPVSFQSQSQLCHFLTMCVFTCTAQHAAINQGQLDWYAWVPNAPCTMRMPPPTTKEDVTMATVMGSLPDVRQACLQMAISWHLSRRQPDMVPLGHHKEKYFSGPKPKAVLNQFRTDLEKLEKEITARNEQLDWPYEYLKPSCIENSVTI
# Values joined by “and” are separate entries in the source; they are usually repeats but may differ in a detail not shown here. Equal values may be shown once. Among all 580,000 compounds or so, about 6,100 (1.1%) were called active. Inconclusive means that the source gave no clear call. Such entries were picked first, then a sample of the others. Calls follow the shape of the dose curve; as a rule, active = well fitted inhibition curve with a large enough effect; inconclusive = small, poorly fitted or top-dose-only effect, or another doubt; inactive = no such curve, though single readings can be large or run the other way. Potencies beside an inconclusive call are fits to weak or partial responses and may not hold up.
# Target: Polyunsaturated fatty acid lipoxygenase ALOX12 (Homo sapiens) (UniProt P18054)
# Test: Primary qHTS assay for inhibitors of human arachidonate 12S-lipoxygenase (ALOX12): Round 2
# Conditions: purified 12hLO, xylenol orange hydroperoxide absorbance; activity change, negative = inhibition: at 108 µM (top of the series) unless noted
# Summary of the method: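 Purified human 12hLO (150 nM final) in 25 mM Hepes, 0.01% Triton X-100, pH 7.0 was preincubated 15 min at room temperature with compound. Then 40 uM arachidonic acid was added, 30 min. Hydroperoxide was read by Fe-XO absorbance ratio 573/405 nm.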
# % is scaled to controls: 0 for no effect and ±100 for the full control effect; potency is read from the fitted curve at half-maximal effect.
SMILES,Potency,"activity change, negative = inhibition"
Cc1ccc2[nH]c3nc(SCCN4CCOCC4)nnc3c2c1,"inconclusive: 44.7 µM [inhibitor, partial curve, poor fit]",
O=C(C=Cc1ccc2c(c1)OCO2)c1ccccc1,,inactive: -4.48%
CCOC(=O)C(NC(=O)c1ccccc1)C(F)(F)F (configuration not stated),"inconclusive: 44.7 µM [inhibitor, partial curve, poor fit]",
NC(=S)N/N=C/C=C/c1ccccc1,"inconclusive: 100 µM [inhibitor, partial curve, poor fit]",
CC(C)C/C=C(/C#N)c1nc2ccccc2[nH]1,"inconclusive: 50.1 µM [inhibitor, partial curve, poor fit]",
CN(c1ccccc1)S(=O)(=O)c1ccc(Cl)c(C(=O)Nc2ccccc2N2CCOCC2)c1,,inactive: -1.68%
Cc1noc([C@@H]2CN(Cc3ccc(Cl)cc3F)C[C@H]2CO)n1,,inactive: 26%
Cc1ccc(-c2nnc(Nc3cccc(Cl)c3)c3ccccc23)cc1S(=O)(=O)N1CCOCC1,"inconclusive: 3.98 µM [inhibitor, full curve, poor fit]",
c1ccc(-c2nc3ccccc3n2C(c2ccccc2)c2nc3ccccc3[nH]2)cc1 (configuration not stated),"inconclusive: 89.1 µM [inhibitor, partial curve, poor fit]",
CCc1ccc(-c2nc(SCc3cc(=O)n4nc(C)sc4n3)n[nH]2)cc1,,inactive: 3.19%
COC(=O)c1c(C)[nH]c(C(=O)c2oc3ccc(OC)cc3c2C)c1C,"inconclusive: 6.31 µM [inhibitor, full curve]",
Cc1ccccc1-c1cc(C(=O)Nc2sc(C)c(C)c2C(N)=O)c2ccccc2n1,"inconclusive: 28.2 µM [inhibitor, full curve, poor fit]",
O=C(C(c1ccccc1)c1ccccc1)N1CCN(Cc2ccncc2)CC1,"inconclusive: 0.282 µM [inhibitor, full curve, poor fit]",
CCCNc1c(NC(=O)c2ccc(OCC)c(OCC)c2)c(=O)oc2ccccc12,"inconclusive: 35.5 µM [inhibitor, partial curve, poor fit]",
CCCCCC(=O)Nc1nc2c(s1)C[C@@H]1[C@](C)(CO)[C@H](O)CC[C@@]1(C)[C@@H]2CC(=O)Nc1cccc(O)c1,"inconclusive: 22.4 µM [inhibitor, partial curve, poor fit]",
Cc1cc(C)c2cc(C(=O)N3CCC(C(=O)c4ccc(F)cc4)CC3)[nH]c2c1,"inconclusive: 100 µM [inhibitor, single point]",
CCOCc1cc(C(=O)O)ccc1OC,"inconclusive: 100 µM [inhibitor, single point]",
Cc1ccnc(NS(=O)(=O)c2ccc(C(C)(C)C)cc2)c1,"inconclusive: 2.51 µM [inhibitor, full curve, poor fit]",
CC(C(C)N1CC(=O)NC(=O)C1)N1CC(=O)NC(=O)C1 (configuration not stated),"inconclusive: 4.85 µM [inhibitor, full curve]",
COc1cc2ccccc2cc1C(=O)Nc1sc2c(c1C(N)=O)CCN(C(C)C)C2,"inconclusive: 44.7 µM [inhibitor, partial curve, poor fit]",
O=C1c2cccc(OCC(=O)N3CCCc4ccccc43)c2CCN1Cc1ccc(F)cc1,,inactive: -17.2%

SMILES,Potency,"activity change, negative = inhibition"
CCN(C(=O)CN1CCC(C)CC1)c1c(N)n(Cc2ccccc2)c(=O)[nH]c1=O,,inactive: -10.2%
COc1ccc(C)cc1C(=O)N1CC(=O)N(c2cccc(Cl)c2)CC1C (configuration not stated),,inactive: 8.72%
CCn1nc(C(=O)NC2CCN(Cc3ccccc3)C2)c2ccccc2c1=O (configuration not stated),,inactive: -27%
O=C1CSC(c2cccc(C(F)(F)F)c2)N1c1ccc(I)cc1 (configuration not stated),"inconclusive: 70.8 µM [inhibitor, single point]",
Cc1cc(C)cc(NC(=O)CN2CCN(c3ccccn3)CC2)c1,"inconclusive: 126 µM [inhibitor, partial curve, poor fit]",
Cc1ccn(-c2cc(O)c(-n3ccc(C)n3)cc2O)n1,active: 2.82 µM,
CC(C)COc1ccc(C(=O)Nc2ccc(S(=O)(=O)Nc3ncccn3)cc2)cc1,,inactive: -10.6%
N#Cc1cc(C(=O)c2cc(Br)ccc2O)cn(C2CC2)c1=O,,inactive: 7.78%
O=C(NCc1cccc(Cl)c1)c1cc2ccc3cccnc3c2[nH]1,,inactive: 3%
CN(C)c1cccc2c1c(NC(=O)Nc1ccc(F)cc1F)nn2C,"inconclusive: 112 µM [inhibitor, single point]",
CC1CCCN(CC(=O)Nc2oc3ccccc3c(=O)c2-c2ccccc2)C1 (configuration not stated),,inactive: 53.9%
CCC(C(=O)Nc1cccc(Cl)c1C)n1nc(-c2ccc(C)cc2)ccc1=O (configuration not stated),"inconclusive: 10 µM [inhibitor, partial curve, poor fit]",
CC1(C)[C@H](Cc2cc(-c3ccccc3)on2)C[C@@H]1NS(=O)(=O)c1ccccc1,"inconclusive: 35.5 µM [inhibitor, full curve]",
CC1CCN(C(=O)Cn2cc(SCC(=O)NCc3ccccc3Cl)c3ccccc32)CC1,"inconclusive: 44.7 µM [inhibitor, partial curve, poor fit]",
O=C(CSc1nc2ccccc2c(=O)n1-c1ccccc1F)N1CCOCC1,"inconclusive: 50.1 µM [inhibitor, partial curve, poor fit]",
CCC(=O)Nc1cc(C)c(O)c(-c2nc3ncccc3o2)c1,"inconclusive: 7.94 µM [inhibitor, full curve]",
Cc1cc(-c2ccccc2)c2c(C)c(C)sc2n1,"inconclusive: 44.7 µM [inhibitor, partial curve, poor fit]",
CC1(Cc2ccc(C(F)(F)F)o2)C(=O)Nc2cc(-c3ccc(F)cc3F)ccc21 (configuration not stated),"inconclusive: 50.1 µM [inhibitor, partial curve, poor fit]",
Clc1ccc(SCCn2cncn2)cc1,"inconclusive: 11.2 µM [inhibitor, partial curve, poor fit]",
O=c1[nH]cnc2c1c(-c1ccccc1)cn2-c1cccc(Cl)c1,"inconclusive: 50.1 µM [inhibitor, partial curve, poor fit]",
COCc1nnc(NC(=O)C2CC(=O)N(c3ccc(C)c(Cl)c3)C2)s1 (configuration not stated),"inconclusive: 56.2 µM [inhibitor, partial curve, poor fit] and inconclusive: 89.1 µM [inhibitor, single point]",

# Structural class, the entries above containing an aryl thioether with sulfur outside any ring
SMILES,Potency,"activity change, negative = inhibition"
Cc1ccc2[nH]c3nc(SCCN4CCOCC4)nnc3c2c1,"inconclusive: 44.7 µM [inhibitor, partial curve, poor fit]",
CCc1ccc(-c2nc(SCc3cc(=O)n4nc(C)sc4n3)n[nH]2)cc1,,inactive: 3.19%
CC1CCN(C(=O)Cn2cc(SCC(=O)NCc3ccccc3Cl)c3ccccc32)CC1,"inconclusive: 44.7 µM [inhibitor, partial curve, poor fit]",
O=C(CSc1nc2ccccc2c(=O)n1-c1ccccc1F)N1CCOCC1,"inconclusive: 50.1 µM [inhibitor, partial curve, poor fit]",
Clc1ccc(SCCn2cncn2)cc1,"inconclusive: 11.2 µM [inhibitor, partial curve, poor fit]",
